# This is one part of the list.
# Protein sequences, listed by entry. Tags and fused reporters are not part of them. Lines headed by an entry give the natural chain unless they say otherwise; changes in a name come on top.
# UniProt Q8IWA5: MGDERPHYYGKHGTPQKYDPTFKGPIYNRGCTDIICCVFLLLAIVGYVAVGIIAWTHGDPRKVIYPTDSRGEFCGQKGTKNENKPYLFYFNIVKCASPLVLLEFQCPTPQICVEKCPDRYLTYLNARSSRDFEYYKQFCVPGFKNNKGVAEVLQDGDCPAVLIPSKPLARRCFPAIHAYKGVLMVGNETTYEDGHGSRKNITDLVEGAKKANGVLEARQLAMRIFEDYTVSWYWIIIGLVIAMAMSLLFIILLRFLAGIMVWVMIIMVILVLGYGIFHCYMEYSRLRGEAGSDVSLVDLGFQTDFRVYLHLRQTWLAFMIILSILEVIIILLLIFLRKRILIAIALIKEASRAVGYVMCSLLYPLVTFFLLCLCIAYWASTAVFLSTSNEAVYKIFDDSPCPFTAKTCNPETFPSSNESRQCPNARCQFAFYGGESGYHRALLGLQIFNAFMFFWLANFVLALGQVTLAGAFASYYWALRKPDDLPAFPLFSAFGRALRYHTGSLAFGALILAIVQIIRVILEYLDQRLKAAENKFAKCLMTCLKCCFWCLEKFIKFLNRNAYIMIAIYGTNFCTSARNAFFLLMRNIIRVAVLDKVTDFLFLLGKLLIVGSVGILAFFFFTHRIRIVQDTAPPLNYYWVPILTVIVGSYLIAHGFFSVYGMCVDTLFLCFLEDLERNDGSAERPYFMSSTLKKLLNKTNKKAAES
# UniProt O00400: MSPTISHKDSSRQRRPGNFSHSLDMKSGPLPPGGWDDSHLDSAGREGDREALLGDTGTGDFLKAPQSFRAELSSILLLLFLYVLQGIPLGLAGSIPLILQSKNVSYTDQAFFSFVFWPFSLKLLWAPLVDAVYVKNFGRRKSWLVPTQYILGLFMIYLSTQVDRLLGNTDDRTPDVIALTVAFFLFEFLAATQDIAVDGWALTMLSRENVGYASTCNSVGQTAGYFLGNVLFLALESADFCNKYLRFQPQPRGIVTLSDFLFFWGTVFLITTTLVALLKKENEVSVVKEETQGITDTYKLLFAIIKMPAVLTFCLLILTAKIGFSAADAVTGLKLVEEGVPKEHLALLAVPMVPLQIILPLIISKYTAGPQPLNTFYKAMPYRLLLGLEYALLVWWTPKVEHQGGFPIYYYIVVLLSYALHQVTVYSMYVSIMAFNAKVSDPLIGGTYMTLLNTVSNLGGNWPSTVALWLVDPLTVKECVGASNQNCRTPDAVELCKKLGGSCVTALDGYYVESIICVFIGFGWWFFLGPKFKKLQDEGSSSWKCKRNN
# UniProt P31641: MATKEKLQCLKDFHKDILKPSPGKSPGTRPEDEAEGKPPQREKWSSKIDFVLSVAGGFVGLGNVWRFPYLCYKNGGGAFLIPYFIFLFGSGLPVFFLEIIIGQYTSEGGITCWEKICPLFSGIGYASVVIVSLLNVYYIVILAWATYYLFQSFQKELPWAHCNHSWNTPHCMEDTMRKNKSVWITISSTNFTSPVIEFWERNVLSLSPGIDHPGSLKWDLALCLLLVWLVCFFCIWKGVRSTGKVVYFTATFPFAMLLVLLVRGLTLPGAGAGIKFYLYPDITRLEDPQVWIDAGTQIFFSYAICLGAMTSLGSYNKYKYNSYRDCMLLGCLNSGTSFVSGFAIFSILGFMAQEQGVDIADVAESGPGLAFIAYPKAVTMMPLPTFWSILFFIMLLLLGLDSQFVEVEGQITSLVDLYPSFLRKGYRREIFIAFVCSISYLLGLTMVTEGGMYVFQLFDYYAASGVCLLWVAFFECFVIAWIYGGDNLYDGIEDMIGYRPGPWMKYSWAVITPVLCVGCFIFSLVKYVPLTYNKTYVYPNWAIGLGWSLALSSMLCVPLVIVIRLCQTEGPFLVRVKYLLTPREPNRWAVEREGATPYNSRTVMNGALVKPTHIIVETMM
# UniProt Q8NBI5: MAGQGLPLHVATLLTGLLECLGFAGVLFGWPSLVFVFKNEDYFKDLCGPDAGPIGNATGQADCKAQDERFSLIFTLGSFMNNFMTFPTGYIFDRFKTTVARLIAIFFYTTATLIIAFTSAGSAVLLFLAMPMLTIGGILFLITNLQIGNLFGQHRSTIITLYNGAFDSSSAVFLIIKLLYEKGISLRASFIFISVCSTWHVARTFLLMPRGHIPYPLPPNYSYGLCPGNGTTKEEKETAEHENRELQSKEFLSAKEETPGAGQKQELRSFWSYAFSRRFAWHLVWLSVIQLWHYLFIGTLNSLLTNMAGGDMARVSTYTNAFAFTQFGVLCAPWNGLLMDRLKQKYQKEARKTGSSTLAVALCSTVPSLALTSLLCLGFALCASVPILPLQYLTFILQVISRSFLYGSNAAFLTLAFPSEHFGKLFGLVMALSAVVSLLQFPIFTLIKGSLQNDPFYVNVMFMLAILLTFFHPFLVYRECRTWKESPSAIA
# UniProt Q6YBV0: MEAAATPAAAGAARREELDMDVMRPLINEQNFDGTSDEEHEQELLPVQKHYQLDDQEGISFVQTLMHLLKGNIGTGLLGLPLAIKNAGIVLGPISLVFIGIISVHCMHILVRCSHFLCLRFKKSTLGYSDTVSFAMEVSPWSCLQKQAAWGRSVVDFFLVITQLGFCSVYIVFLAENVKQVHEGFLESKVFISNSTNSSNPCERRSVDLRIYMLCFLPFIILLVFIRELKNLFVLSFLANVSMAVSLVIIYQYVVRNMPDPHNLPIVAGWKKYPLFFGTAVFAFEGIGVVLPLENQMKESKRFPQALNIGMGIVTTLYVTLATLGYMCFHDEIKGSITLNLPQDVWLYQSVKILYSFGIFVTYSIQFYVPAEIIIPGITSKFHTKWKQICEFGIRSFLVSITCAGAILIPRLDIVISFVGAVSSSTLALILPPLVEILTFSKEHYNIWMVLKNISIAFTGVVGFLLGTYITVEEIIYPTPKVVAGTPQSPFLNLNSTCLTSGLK
# UniProt Q9BXS9: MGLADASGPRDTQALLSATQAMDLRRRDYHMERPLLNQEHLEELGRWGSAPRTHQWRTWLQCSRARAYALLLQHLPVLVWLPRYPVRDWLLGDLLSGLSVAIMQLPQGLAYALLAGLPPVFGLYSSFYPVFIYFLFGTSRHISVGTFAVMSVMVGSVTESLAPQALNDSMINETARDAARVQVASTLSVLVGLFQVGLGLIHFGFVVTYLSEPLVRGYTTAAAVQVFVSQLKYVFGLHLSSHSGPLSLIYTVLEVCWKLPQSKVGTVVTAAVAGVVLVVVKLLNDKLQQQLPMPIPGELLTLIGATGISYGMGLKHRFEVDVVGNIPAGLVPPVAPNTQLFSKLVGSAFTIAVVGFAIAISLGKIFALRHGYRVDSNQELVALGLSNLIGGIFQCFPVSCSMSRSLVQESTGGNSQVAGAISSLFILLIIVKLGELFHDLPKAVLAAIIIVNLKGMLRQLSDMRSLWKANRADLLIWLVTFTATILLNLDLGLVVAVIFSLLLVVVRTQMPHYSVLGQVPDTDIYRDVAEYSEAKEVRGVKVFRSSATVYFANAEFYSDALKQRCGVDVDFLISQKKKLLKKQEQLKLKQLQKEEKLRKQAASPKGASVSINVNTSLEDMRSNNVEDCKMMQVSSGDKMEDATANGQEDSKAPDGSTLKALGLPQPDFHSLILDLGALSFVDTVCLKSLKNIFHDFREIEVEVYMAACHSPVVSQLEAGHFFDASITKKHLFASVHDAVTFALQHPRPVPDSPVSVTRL
# UniProt Q86VD7: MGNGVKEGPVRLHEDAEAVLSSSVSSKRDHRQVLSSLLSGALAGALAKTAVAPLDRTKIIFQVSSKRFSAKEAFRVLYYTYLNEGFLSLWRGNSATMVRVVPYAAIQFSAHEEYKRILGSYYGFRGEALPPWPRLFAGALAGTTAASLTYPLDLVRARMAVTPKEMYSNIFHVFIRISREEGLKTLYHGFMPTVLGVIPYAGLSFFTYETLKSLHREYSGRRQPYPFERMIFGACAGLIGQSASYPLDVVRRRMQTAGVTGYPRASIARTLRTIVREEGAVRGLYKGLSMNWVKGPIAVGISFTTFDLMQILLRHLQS
# UniProt O00193: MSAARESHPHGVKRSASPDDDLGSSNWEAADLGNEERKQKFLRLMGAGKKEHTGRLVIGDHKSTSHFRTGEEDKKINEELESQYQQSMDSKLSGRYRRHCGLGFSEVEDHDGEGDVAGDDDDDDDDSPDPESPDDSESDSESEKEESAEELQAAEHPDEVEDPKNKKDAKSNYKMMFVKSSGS
# UniProt Q6KCM7: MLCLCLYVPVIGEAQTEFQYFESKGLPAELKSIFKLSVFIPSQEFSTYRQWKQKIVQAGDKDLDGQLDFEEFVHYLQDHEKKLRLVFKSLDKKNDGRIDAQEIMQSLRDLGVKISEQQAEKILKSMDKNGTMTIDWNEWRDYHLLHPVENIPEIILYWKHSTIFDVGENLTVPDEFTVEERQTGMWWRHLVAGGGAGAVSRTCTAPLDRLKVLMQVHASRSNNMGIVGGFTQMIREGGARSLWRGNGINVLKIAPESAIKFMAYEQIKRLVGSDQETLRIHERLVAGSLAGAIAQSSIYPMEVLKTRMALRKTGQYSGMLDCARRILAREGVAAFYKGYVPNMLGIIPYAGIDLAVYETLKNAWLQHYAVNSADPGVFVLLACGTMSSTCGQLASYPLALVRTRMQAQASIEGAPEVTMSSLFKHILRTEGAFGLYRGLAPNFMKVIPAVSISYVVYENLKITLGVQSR
# UniProt L0R6Q1: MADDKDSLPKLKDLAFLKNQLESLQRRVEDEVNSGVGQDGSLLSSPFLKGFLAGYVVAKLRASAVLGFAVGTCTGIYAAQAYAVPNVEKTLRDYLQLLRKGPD
# UniProt P48029: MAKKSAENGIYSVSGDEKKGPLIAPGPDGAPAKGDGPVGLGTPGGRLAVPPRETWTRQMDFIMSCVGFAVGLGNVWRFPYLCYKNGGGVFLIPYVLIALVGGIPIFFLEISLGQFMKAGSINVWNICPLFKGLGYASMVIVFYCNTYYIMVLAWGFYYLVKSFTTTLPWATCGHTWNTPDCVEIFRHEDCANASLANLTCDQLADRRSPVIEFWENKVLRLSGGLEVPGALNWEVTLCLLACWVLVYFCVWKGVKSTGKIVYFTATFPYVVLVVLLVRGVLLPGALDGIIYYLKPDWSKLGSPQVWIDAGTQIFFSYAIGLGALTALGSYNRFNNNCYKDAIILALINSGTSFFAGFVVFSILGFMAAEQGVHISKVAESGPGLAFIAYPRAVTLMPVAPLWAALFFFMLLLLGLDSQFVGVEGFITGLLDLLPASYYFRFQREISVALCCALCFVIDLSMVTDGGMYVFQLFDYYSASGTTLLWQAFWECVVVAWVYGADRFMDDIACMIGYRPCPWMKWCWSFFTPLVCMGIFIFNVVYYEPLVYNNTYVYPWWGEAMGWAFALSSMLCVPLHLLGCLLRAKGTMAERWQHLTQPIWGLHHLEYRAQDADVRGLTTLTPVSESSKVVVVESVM
# UniProt Q9Y6M5: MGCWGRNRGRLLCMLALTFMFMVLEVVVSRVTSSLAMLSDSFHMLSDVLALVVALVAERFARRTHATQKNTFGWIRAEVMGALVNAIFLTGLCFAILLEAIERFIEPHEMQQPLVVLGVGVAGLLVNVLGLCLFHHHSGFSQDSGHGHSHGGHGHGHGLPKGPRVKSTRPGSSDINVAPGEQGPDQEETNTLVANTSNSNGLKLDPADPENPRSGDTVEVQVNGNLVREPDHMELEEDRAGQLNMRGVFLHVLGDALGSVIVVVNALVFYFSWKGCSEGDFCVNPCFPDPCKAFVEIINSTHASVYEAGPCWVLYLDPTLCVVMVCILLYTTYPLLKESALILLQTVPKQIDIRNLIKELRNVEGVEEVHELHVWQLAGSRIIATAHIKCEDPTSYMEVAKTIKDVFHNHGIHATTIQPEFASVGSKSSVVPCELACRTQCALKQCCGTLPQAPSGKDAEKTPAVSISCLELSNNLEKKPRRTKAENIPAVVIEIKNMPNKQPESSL
# UniProt Q8WU79: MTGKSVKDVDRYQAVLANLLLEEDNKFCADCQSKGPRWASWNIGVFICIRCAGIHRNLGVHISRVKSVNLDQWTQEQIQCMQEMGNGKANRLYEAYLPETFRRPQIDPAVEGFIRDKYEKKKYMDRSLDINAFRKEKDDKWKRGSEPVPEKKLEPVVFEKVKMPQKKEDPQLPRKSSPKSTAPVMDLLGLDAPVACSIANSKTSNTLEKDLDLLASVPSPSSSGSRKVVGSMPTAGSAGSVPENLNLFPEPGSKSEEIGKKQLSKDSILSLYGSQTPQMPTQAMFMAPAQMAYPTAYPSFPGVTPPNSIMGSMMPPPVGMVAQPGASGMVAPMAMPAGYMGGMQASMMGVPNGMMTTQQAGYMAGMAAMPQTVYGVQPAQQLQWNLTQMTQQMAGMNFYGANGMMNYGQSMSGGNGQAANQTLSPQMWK
# UniProt P05141: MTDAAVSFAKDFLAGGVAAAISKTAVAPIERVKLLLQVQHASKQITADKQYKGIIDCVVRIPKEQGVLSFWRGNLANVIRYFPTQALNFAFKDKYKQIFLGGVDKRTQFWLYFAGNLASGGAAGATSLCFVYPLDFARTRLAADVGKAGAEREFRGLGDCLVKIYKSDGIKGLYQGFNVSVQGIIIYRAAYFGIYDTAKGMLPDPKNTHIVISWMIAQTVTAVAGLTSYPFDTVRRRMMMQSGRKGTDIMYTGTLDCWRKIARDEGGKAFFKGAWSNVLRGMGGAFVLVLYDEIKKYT
# Compound: Cc1cc(Nc2cc(CN3CCOCC3)c3nc(C)c(Cc4ccc(Cl)cc4F)n3n2)n[nH]1 [gandotinib]
# Experiment: log2 fold change, soluble protein after heating vs DMSO (PISA); higher = thermal stabilisation; K562 lysate, 10 uM; active = over 0.2 and 3.5 SD of the protein, either way, in both replicates (recomputed)
# Method in brief: (§1)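 Quantification was by TMTpro 16plex LC-MS/MS with equalised channel sums, applied to the supernatant after 21,000xg for 90 min. Samples were crude K562 extract at 1 mg/mL protein in PBS pH 7.4 with 1 mM MgCl2, treated with 10 μM compound for 30 min, heated for 3 min across 48°C-58°C, pooled and brought to 0.5% NP-40 at 4°C. Values are log-two fold changes in thermal stability relative to solvent controls, from duplicates.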
row,Target,log2 fold change
1,SLIRP (UniProt Q9GZT3),inactive: 0.06
2,SLC25A13 isoform 2 (UniProt Q9UJS0),inactive: 0.043
3,SLC2A1 (UniProt P11166),inactive: 0
4,SLC25A22 (UniProt Q9H936),inactive: -0.004
5,SLC44A2 (UniProt Q8IWA5),inactive: 0.05
6,SLC33A1 (UniProt O00400),inactive: 0.069
7,SLC25A3 isoform 2 (UniProt Q00325),inactive: 0.032
8,SLC38A9 (UniProt Q8NBW4),inactive: 0.114
9,SLC6A6 (UniProt P31641),inactive: -0.023
10,SLC30A7 (UniProt Q8NEW0),inactive: 0.171
11,SLC7A5 (UniProt Q01650),active: 0.201
12,SLC38A7 (UniProt Q9NVC3),inactive: -0.01
13,SLC43A3 isoform 2 (UniProt Q8NBI5),inactive: 0.069
14,SLC4A1AP (UniProt Q9BWU0),inactive: 0.021
15,SLC27A2 (UniProt O14975),inactive: 0.286
16,SLC36A4 (UniProt Q6YBV0),inactive: 0.093
17,SLC26A6 (UniProt Q9BXS9),inactive: 0.051
18,SLC25A21 (UniProt Q9BQT8),inactive: 0.056
19,SLC25A4 (UniProt P12235),inactive: 0.17

row,Target,log2 fold change
1,SLC38A10 (UniProt Q9HBR0),inactive: 0.068
2,SLC25A42 (UniProt Q86VD7),inactive: 0.034
3,SMAP (UniProt O00193),inactive: 0.068
4,SLC3A2 isoform 3 (UniProt P08195),inactive: 0.057
5,SLC25A25 isoform 3 (UniProt Q6KCM7),inactive: -0.047
6,SLC9A1 (UniProt P19634),inactive: 0.069
7,SLC4A7 isoform 7 (UniProt Q9Y6M7),inactive: -0.112
8,SLC35A4 (UniProt L0R6Q1),inactive: 0.095
9,SLC9A3R2 (UniProt Q15599),inactive: 0.041
10,SMAD4 (UniProt Q13485),inactive: 0.039
11,SLC6A8 isoform 2 (UniProt P48029),inactive: -0.045
12,SLC4A2 (UniProt P04920),inactive: -0.013
13,SLC30A1 (UniProt Q9Y6M5),inactive: 0.07
14,SLC25A31 (UniProt Q9H0C2),inactive: 0.022
15,SMAP2 (UniProt Q8WU79),inactive: -0.008
16,SLC6A8 (UniProt P48029),inactive: 0.103
17,SLC25A5 (UniProt P05141),inactive: -0.064
18,SLC25A1 (UniProt P53007),inactive: 0.024
19,SMAP1 isoform 2 (UniProt Q8IYB5),inactive: 0.014

# Compound: Cc1cc(Nc2cc(N3CCN(C)CC3)nc(Sc3ccc(NC(=O)C4CC4)cc3)n2)n[nH]1 [tozasertib]
# Experiment: as above
# Method in brief: as §1
row,Target,log2 fold change
1,SLIRP (UniProt Q9GZT3),inactive: -0.008
2,SLC25A13 isoform 2 (UniProt Q9UJS0),inactive: -0.017
3,SLC2A1 (UniProt P11166),inactive: 0.008
4,SLC25A22 (UniProt Q9H936),inactive: 0.017
5,SLC44A2 (UniProt Q8IWA5),inactive: -0.051
6,SLC33A1 (UniProt O00400),inactive: 0.006
7,SLC25A3 isoform 2 (UniProt Q00325),inactive: -0.019
8,SLC38A9 (UniProt Q8NBW4),inactive: 0.036
9,SLC6A6 (UniProt P31641),inactive: 0.029
10,SLC30A7 (UniProt Q8NEW0),inactive: 0.092
11,SLC7A5 (UniProt Q01650),inactive: -0.012
12,SLC38A7 (UniProt Q9NVC3),inactive: -0.03
13,SLC43A3 isoform 2 (UniProt Q8NBI5),inactive: -0.003
14,SLC4A1AP (UniProt Q9BWU0),inactive: -0.025
15,SLC27A2 (UniProt O14975),inactive: 0.117
16,SLC36A4 (UniProt Q6YBV0),inactive: -0.044
17,SLC26A6 (UniProt Q9BXS9),inactive: 0.047
18,SLC25A21 (UniProt Q9BQT8),inactive: -0.012
19,SLC25A4 (UniProt P12235),inactive: -0.002

row,Target,log2 fold change
1,SLC38A10 (UniProt Q9HBR0),inactive: -0.061
2,SLC25A42 (UniProt Q86VD7),inactive: 0
3,SMAP (UniProt O00193),inactive: 0.024
4,SLC3A2 isoform 3 (UniProt P08195),inactive: -0.028
5,SLC25A25 isoform 3 (UniProt Q6KCM7),inactive: 0
6,SLC9A1 (UniProt P19634),inactive: 0.069
7,SLC4A7 isoform 7 (UniProt Q9Y6M7),inactive: 0.009
8,SLC35A4 (UniProt L0R6Q1),inactive: 0.051
9,SLC9A3R2 (UniProt Q15599),inactive: 0.019
10,SMAD4 (UniProt Q13485),inactive: 0.02
11,SLC6A8 isoform 2 (UniProt P48029),inactive: -0.203
12,SLC4A2 (UniProt P04920),inactive: -0.003
13,SLC30A1 (UniProt Q9Y6M5),inactive: 0.021
14,SLC25A31 (UniProt Q9H0C2),inactive: -0.019
15,SMAP2 (UniProt Q8WU79),inactive: 0.054
16,SLC6A8 (UniProt P48029),inactive: 0.004
17,SLC25A5 (UniProt P05141),inactive: -0.06
18,SLC25A1 (UniProt P53007),inactive: -0.025
19,SMAP1 isoform 2 (UniProt Q8IYB5),inactive: 0.03

# Reference: the supplement of paper PMC10849652
